{"sequences": {"note": "Chains of the proteins cited; added tags and fusions are not shown. Lines headed by an entry give the natural chain unless they say otherwise; changes in a name come on top.", "UniProt P18054": "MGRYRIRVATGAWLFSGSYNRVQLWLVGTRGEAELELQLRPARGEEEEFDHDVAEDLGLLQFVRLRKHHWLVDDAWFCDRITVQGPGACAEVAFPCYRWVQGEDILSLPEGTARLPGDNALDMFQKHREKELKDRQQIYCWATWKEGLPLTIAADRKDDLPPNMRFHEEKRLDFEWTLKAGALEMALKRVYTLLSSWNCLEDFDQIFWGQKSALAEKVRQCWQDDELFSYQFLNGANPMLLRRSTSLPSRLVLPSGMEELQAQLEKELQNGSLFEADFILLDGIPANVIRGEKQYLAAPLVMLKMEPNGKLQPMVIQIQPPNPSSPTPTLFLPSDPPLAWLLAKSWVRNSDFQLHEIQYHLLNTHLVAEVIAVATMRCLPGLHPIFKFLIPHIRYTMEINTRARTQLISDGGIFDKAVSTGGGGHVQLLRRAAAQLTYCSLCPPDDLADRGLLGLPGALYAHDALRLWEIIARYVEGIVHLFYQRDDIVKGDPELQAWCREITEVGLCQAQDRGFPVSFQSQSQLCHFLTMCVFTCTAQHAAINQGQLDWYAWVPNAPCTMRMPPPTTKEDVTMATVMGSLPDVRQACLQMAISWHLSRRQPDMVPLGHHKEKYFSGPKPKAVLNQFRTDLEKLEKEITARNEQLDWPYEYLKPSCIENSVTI"}, "source": "PubChem BioAssay AID1671190", "about": "(National Center for Advancing Translational Sciences (NCATS), 2021)", "note": "Screen size: about 580,000 compounds; about 6,100 (1.1%) were called active. Another 15% or so got no clear call; they are omitted. The call rests on the fitted dose curve; in most records, active means well fitted inhibition curve with a large enough effect; inconclusive means small, poorly fitted or top-dose-only effect, or another doubt; inactive means no such curve, though single readings can be large or run the other way. This is a selection; strong and weak results do not stand in their true shares. Entries without a call were filed so in the source. On the % scale 0 is the no-effect control and ±100 the full control effect; potency means the concentration at half of the fitted maximal effect.", "data": [{"biological_target": "Polyunsaturated fatty acid lipoxygenase ALOX12 (Homo sapiens) (UniProt P18054)", "test": "Primary qHTS assay for inhibitors of human arachidonate 12S-lipoxygenase (ALOX12): Round 2", "details": "purified 12hLO, xylenol orange hydroperoxide absorbance; activity change, negative = inhibition: at 0.00344 µM unless noted", "outline": "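Purified human 12hLO at 150 nM in 25 mM Hepes, 0.01% Triton X-100, pH 7.0, preincubated 15 min at room temperature with compound. Reaction started with 40 uM arachidonic acid, 30 min at room temperature. Hydroperoxide measured by Fe-xylenol orange, 573/405 nm absorbance ratio.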", "units": {"activity change, negative = inhibition": "%"}, "values": [{"smiles": "C[C@@H]1CCN(C(=O)[C@H](CCCN=C(N)N)NS(=O)(=O)c2cccc3c2NC[C@H](C)C3)[C@@H](C(=O)O)C1", "activity change, negative = inhibition": -17.1}, {"smiles": "C[C@@H](O)[C@H]1C(=O)N2C(C(=O)O)=C(S[C@@H]3CN[C@H](CNS(N)(=O)=O)C3)[C@H](C)[C@H]12", "activity change, negative = inhibition": -9.37}, {"smiles": "CC(C)Cn1cnc2c1c(=O)n(C)c(=O)n2C", "activity change, negative = inhibition": 31}, {"smiles": "CC(C)(C#N)c1cc(Cn2cncn2)cc(C(C)(C)C#N)c1", "activity change, negative = inhibition": 7.7}, {"smiles": "CC(=O)c1ccc2c(c1)N(CCCN(C)C)c1ccccc1S2", "activity change, negative = inhibition": -7.85}, {"smiles": "CN(C)CCOC(C)(c1ccccc1)c1ccccn1", "note": "(centres undefined)", "activity change, negative = inhibition": -8.54}, {"smiles": "C=CCNC(N)=S", "activity change, negative = inhibition": -2.66}, {"smiles": "CCO[C@@H]1O[C@H](C(COCc2ccccc2)OCc2ccccc2)[C@H](OCc2ccccc2)[C@H]1O", "note": "(some centres undefined)", "activity change, negative = inhibition": -16.7}, {"smiles": "CC(C)c1ccc2oc3nc(N)c(C(=O)O)cc3c(=O)c2c1", "activity change, negative = inhibition": 27.3}, {"smiles": "C[C@H]1O[C@H](O[C@H]2[C@H](O)[C@@H](O)[C@@H](O[C@H]3[C@H](O)[C@@H](O)[C@H](O)O[C@@H]3CO)O[C@@H]2CO)[C@H](O)[C@@H](O)[C@@H]1N[C@H]1C=C(CO)[C@@H](O)[C@H](O)[C@H]1O", "activity change, negative = inhibition": -11.1}, {"smiles": "O=c1[nH]c2cc(C(F)(F)F)c(N3CCOCC3)cc2n(CP(=O)(O)O)c1=O", "activity change, negative = inhibition": -17.9}, {"smiles": "CC(=O)Oc1ccc2c(c1)CC[C@@H]1[C@@H]2CC[C@]2(C)[C@@H](O)CC[C@@H]12", "activity change, negative = inhibition": 49.1}, {"smiles": "CCOC(=O)c1c(N)sc2c1CCN(Cc1ccccc1)C2", "activity change, negative = inhibition": -9.08}, {"smiles": "O=C(O)c1cccnc1Nc1cccc(C(F)(F)F)c1", "activity change, negative = inhibition": -7.46}, {"smiles": "Cc1cc(C(C)(C)C)c(O)c(C)c1CC1=NCCN1", "activity change, negative = inhibition": -25.3}, {"smiles": "c1ccc(Nc2nc(NCC3CCCO3)c3ccccc3n2)cc1", "note": "(centres undefined)", "Potency": "active: 44.7 µM"}, {"smiles": "NS(=O)(=O)c1cc(C(=O)O)cc(N2CCCC2)c1Oc1ccccc1", "activity change, negative = inhibition": 33.8}, {"smiles": "COC(c1ccccc1)(c1ccccc1)[C@H](Oc1nc(C)cc(C)n1)C(=O)O", "activity change, negative = inhibition": -2.05}, {"smiles": "Cc1c(C)c2c(c(C)c1O)CCC(C)(COc1ccc(CC3SC(=O)NC3=O)cc1)O2", "note": "(centres undefined)", "activity change, negative = inhibition": -21.3}, {"smiles": "Fc1cccc(/C=N/Nc2ccc(Cl)c(Cl)c2)c1", "Potency": "active: 5.01 µM"}, {"smiles": "CSc1ccc2c(c1)C(N1CCN(C)CC1)Cc1ccccc1S2", "note": "(centres undefined)", "activity change, negative = inhibition": -18.9}, {"smiles": "C[C@H]1COc2c(C3(N)CC3)c(F)cc3c(=O)c(C(=O)O)cn1c23", "activity change, negative = inhibition": 28.4}, {"smiles": "O=C(O)c1ccc2c(c1)CC(=O)N2Cc1ccc(F)cc1", "Potency": "active: 11.2 µM"}, {"smiles": "O=C(O)CC(O)C(=O)O", "note": "(centres undefined)", "activity change, negative = inhibition": -21.8}, {"smiles": "CCCCCCC[N+](CC)(CC)CCCCc1ccc(Cl)cc1", "activity change, negative = inhibition": 0.555}, {"smiles": "Clc1ccc2c(c1)Nc1ccccc1S2", "activity change, negative = inhibition": -16.9}, {"smiles": "Nc1nc2ccccc2n1Cc1ccc(F)cc1", "activity change, negative = inhibition": 13.5}, {"smiles": "COc1cccc(-c2nccc3c(=O)cc(N4CCOCC4)oc23)c1", "Potency": "active: 44.7 µM"}, {"smiles": "Fc1ccc(-n2nnc(-c3nccs3)n2)cc1", "Potency": "active: 11.2 µM"}, {"smiles": "Cc1ccc(Nc2c(F)cccc2Cl)c(CC(=O)O)c1", "activity change, negative = inhibition": 1.87}, {"smiles": "Cc1ccc(CN2C(=O)NC3(CCCN(C(=O)c4cc5ccccc5[nH]4)C3)C2=O)cc1", "note": "(centres undefined)", "Potency": "active: 12.6 µM"}, {"smiles": "COC(=O)C1=C(C)NC(C)=C(C(=O)OCC(C)=O)C1c1ccccc1[N+](=O)[O-]", "note": "(centres undefined)", "activity change, negative = inhibition": 21.5}, {"smiles": "Fc1ccc(C(c2ccc(F)cc2)N2CCN(C/C=C/c3ccccc3)CC2)cc1", "activity change, negative = inhibition": 25.4}, {"smiles": "Cn1c(NCCN(CCO)CCCc2ccc([N+](=O)[O-])cc2)cc(=O)n(C)c1=O", "activity change, negative = inhibition": 20.7}, {"smiles": "CC(C)N1C(=O)S/C(=C/c2cn(CC#N)c3ccccc23)C1=O", "Potency": "active: 4.47 µM"}, {"smiles": "COc1cccc(-c2n[nH]c(=S)n2Cc2ccco2)c1", "Potency": "active: 17.8 µM"}, {"smiles": "O=C(O)c1cccc(-n2cccc2/C=C2\\NC(=O)N(Cc3ccc(F)cc3)C2=O)c1", "Potency": "active: 39.8 µM"}, {"smiles": "Cc1cccc(C(=O)O)c1O", "activity change, negative = inhibition": -11.9}, {"smiles": "Cn1cc(C(=O)[C@@H]2CCc3nc[nH]c3C2)c2ccccc21", "activity change, negative = inhibition": 23.7}, {"smiles": "CC(=O)Oc1ccc(C)cc1", "activity change, negative = inhibition": -28.1}, {"smiles": "CCOC(=O)N1CCN(Cc2ccc(O)c3ncccc23)CC1", "Potency": "active: 25.1 µM"}, {"smiles": "CC1(C)CCC(C)(C)c2cc(NC(=O)c3ccc(C(=O)O)cc3)ccc21", "activity change, negative = inhibition": 22.5}, {"smiles": "N[C@@H](Cc1cc(I)c(Oc2cc(I)c(O)c(I)c2)c(I)c1)C(=O)O", "activity change, negative = inhibition": 17.4}, {"smiles": "CNCc1ccccc1", "activity change, negative = inhibition": 0.364}, {"smiles": "COc1cc(O)c(C(=O)c2ccccc2)cc1S(=O)(=O)O", "activity change, negative = inhibition": 49.2}, {"smiles": "O=C(CCc1ccccc1)NNC(=S)NC(=O)c1ccc(Cl)cc1", "Potency": "active: 12.6 µM"}, {"smiles": "CN1C(=O)CC(c2ccccc2)C1=O", "note": "(centres undefined)", "activity change, negative = inhibition": 7.07}, {"smiles": "Cc1cccc(-c2noc([C@@H]3Cc4nc[nH]c4CN3C(=O)NC3CCCCC3)n2)c1", "Potency": "active: 12.6 µM"}, {"smiles": "CN(C)CCN(Cc1ccccc1)c1ccccn1", "activity change, negative = inhibition": -5.68}, {"smiles": "C=C1C(=C/C=C2\\CCC[C@]3(C)[C@@H]([C@H](C)/C=C/[C@@H](O)C4CC4)CC[C@@H]23)C[C@@H](O)C[C@@H]1O", "activity change, negative = inhibition": -11.5}, {"smiles": "CCCN(CCC)S(=O)(=O)c1ccc(C(=O)O)cc1", "activity change, negative = inhibition": 4.32}, {"smiles": "CCN(CC)C(=O)c1cccc(C)c1", "activity change, negative = inhibition": -28.9}, {"smiles": "CC(C)(C)NCC(O)COc1ccc(NC(=O)NC2CCCCC2)cc1", "note": "(centres undefined)", "activity change, negative = inhibition": -9.43}, {"smiles": "CC(=O)Oc1c(C)c(C)c2c(c1C)CC[C@@](C)(CCC[C@H](C)CCC[C@H](C)CCCC(C)C)O2", "activity change, negative = inhibition": 47.7}, {"smiles": "Oc1cccc(Nc2nc(-c3ccccc3)nc3ccccc23)c1", "Potency": "active: 39.8 µM"}, {"smiles": "O=C(O)CCCCC(=O)O", "activity change, negative = inhibition": 21.6}, {"smiles": "CC(O)C(=O)O", "note": "(centres undefined)", "activity change, negative = inhibition": -33.2}, {"smiles": "NC(=S)N/N=C/c1cccnc1", "activity change, negative = inhibition": -21.7}, {"smiles": "OC(CN1CCC(Cc2ccc(F)cc2)CC1)c1ccc(Cl)cc1", "note": "(centres undefined)", "activity change, negative = inhibition": -12.2}, {"smiles": "FC(F)(F)c1ccccc1-c1nc(NCc2cccnc2)c2ccccc2n1", "Potency": "active: 44.7 µM"}, {"smiles": "CC(=O)Oc1ccccc1C(=O)O", "activity change, negative = inhibition": 12.9}, {"smiles": "N#Cc1c(SCCN2CCOCC2)nc(N2CCCCC2)c2c1CCCC2", "Potency": "active: 0.794 µM"}, {"smiles": "COc1ccc(CN2CCNC(=O)C2CC(=O)NCCC2=CCCCC2)c(F)c1", "note": "(centres undefined)", "Potency": "active: 11.2 µM"}, {"smiles": "CC1=C(/C=C/C(C)=C/C=C/C(C)=C/C(=O)O)C(C)(C)CCC1", "activity change, negative = inhibition": -15.2}, {"smiles": "COc1cc(C(=O)NCCCCCC(=O)O)cc(OC)c1OC", "activity change, negative = inhibition": -24.5}, {"smiles": "Nc1nnnn1-c1ccccc1", "activity change, negative = inhibition": 21.1}, {"smiles": "Cc1ncc(CO)c(CO)c1O", "activity change, negative = inhibition": -5.85}, {"smiles": "CC(=O)Oc1ccc(C(=C2CCCCC2)c2ccc(OC(C)=O)cc2)cc1", "activity change, negative = inhibition": -12.8}, {"smiles": "CC(=O)NC1(C)CCN(Cc2cccc(-c3cccc(Cl)c3)c2)C1", "note": "(centres undefined)", "Potency": "active: 39.8 µM"}]}]}
